# Test results published in PubChem BioAssay AID540276 (National Center for Advancing Translational Sciences (NCATS), 2011).
# In all, about 300,000 compounds went through this assay and about 5,400 (1.8%) were called active. Inconclusive results, whose numbers are uncertain, are shown with a selection of clear calls. The call rests on the fitted dose curve; tested in HEK293 cells. Potencies beside an inconclusive call are fits to weak or partial responses and may not hold up.
# Assay: qHTS for inhibitors of binding or entry into cells for Marburg Virus
# Conditions: Marburg virus pseudotyped entry inhibition, cell reporter; activity change, negative = inhibition: at 37.8 µM (top of the series) unless noted
# On the % scale 0 is the no-effect control and ±100 the full control effect; potency means the concentration at half of the fitted maximal effect.
SMILES,Potency,"activity change, negative = inhibition"
Cc1cccc(C2c3[nH]c4ccccc4c3CCN2C(=O)Cc2nc(-c3ccccc3)n[nH]2)n1 (centres undefined),"inconclusive: 7.94 µM [inhibitor, partial curve, poor fit]",–
Cc1cccc(NC(=O)Cn2c(O)c(N=NC(=O)c3ccccc3O)c3ccccc32)c1,"inconclusive: 35.5 µM [inhibitor, single point]",–
Cc1c(C(=O)NCc2ccccn2)oc2ccccc12,–,inactive: 16.7%
CCOC(=O)c1cc(=O)n2nc(-c3ccccc3F)nc2s1,"inconclusive: 1.46 µM [activator, full curve, poor fit]",–
Cc1cccc(N2CCN(CCCNC(=O)c3ccc(NC(=O)C4=CSCCO4)cc3)CC2C)c1 (centres undefined),"inconclusive: 31.6 µM [inhibitor, single point]",–
Cc1ccc2c(c1)c(C)c(C)n2CC(O)Cn1nc(C)c(Br)c1C (centres undefined),"inconclusive: 35.5 µM [inhibitor, single point]",–
Cc1sc(NC(=O)c2ccco2)c(CN2CCC(C)CC2)c1C,"inconclusive: 11.2 µM [inhibitor, single point]",–
Cc1cc(O)c(C=Nc2cccc(Cl)c2)c(=O)o1,–,inactive: 1.29%
COc1ccc(Oc2coc3cc(OC(=O)c4cncc(Br)c4)ccc3c2=O)cc1,"inconclusive: 3.55 µM [activator, single point]",–
COc1ccc(OC)c(CN2CCN(c3ccccc3OC)CC2)c1,"inconclusive: 20.6 µM [inhibitor, single point]",–
COc1cc(OC)cc(C(=O)Nc2ccc(C(=O)NCC3CCCO3)cc2)c1 (centres undefined),–,inactive: -2.55%
COc1ccc(C(C)=O)cc1COC(=O)Cc1cc(OC)c(OC)c(OC)c1,–,inactive: -2.57% [at 46.1 µM]
CN(C)c1ccc(N=Cc2nc(-c3ccccc3)oc2OC(=O)c2cccc(Cl)c2)cc1,"inconclusive: 12.6 µM [inhibitor, single point]",–
O=C(N/C(=C/c1cccc(Br)c1)c1nc(=S)[nH][nH]1)c1ccccc1,"inconclusive: 0.891 µM [inhibitor, partial curve, poor fit]",–
O=C(CSc1nc2ccccc2c(=O)n1Cc1ccc(F)cc1)NCc1cccs1,"inconclusive: 29.1 µM [activator, single point]",–
Cc1ccc2occ(/C=N/NC(=O)[C@@H](N)Cc3ccccc3)c(=O)c2c1,–,inactive: 5.97% [at 46.1 µM]
CCOc1cc(N2CCOCC2)c(OCC)cc1NC(=O)COc1cccc(Cl)c1,–,inactive: -3.98%
Cc1cnc(C(=O)N2CCN(c3ccc(C(F)(F)F)cn3)CC2)cn1,"inconclusive: 0.251 µM [inhibitor, single point]",–
O=C(CCN1CCN(c2ccccc2F)CC1)c1ccc(Br)cc1,–,inactive: 1.49%
CCCn1c(C)cc(C(=O)COc2ccc(S(=O)(=O)N(CC)CC)cc2[N+](=O)[O-])c1C,"inconclusive: 18.4 µM [inhibitor, single point]",–
COc1ccccc1C(CNC(=O)c1cc(C)nc2ccccc12)N(C)C (centres undefined),–,inactive: 5.48% [at 46.1 µM]
O=C(Oc1ccccc1)N1CCN(c2ccccc2F)CC1,"inconclusive: 11.2 µM [activator, single point]",–

# Single records, as listed above. Values in the order: Potency | activity change, negative = inhibition
# `CCCn1c(C)cc(C(=O)COc2ccc(S(=O)(=O)N(CC)CC)cc2[N+](=O)[O-])c1C` as listed: inconclusive: 18.4 µM [inhibitor, single point] | –
# `Cc1cc(O)c(C=Nc2cccc(Cl)c2)c(=O)o1` as listed: – | inactive: 1.29%
# `CCOc1cc(N2CCOCC2)c(OCC)cc1NC(=O)COc1cccc(Cl)c1` as listed: – | inactive: -3.98%

# Continued:

SMILES,Potency,"activity change, negative = inhibition"
COc1ccc(-c2cc(COc3ccccc3)on2)cc1,"inconclusive: 11.2 µM [activator, single point]",–
Cn1cccc1Cc1nnc(SCC(=O)NCc2ccccc2Cl)n1-c1ccc(F)cc1,–,inactive: 1.78%
Cc1nc2c(ccc3nc(NC(=O)C4CC4)sc32)s1,"inconclusive: 22.4 µM [inhibitor, single point]",–
CN1CCc2c(n(C[C@H](O)CN3C(=O)c4ccccc4S3(=O)=O)c3ccccc23)C1=O,–,inactive: -19.7%
CCC(C)N(C(=O)COc1ccc(-c2nnco2)cc1)C1CCS(=O)(=O)C1 (centres undefined),"inconclusive: 1.12 µM [inhibitor, single point]",–
CCOC(=O)c1c(NC(C)=O)sc2c1CCC(C=NCCCN(CC)CC)=C2Sc1ccccc1,"inconclusive: 35.5 µM [inhibitor, single point]",–
O=C(OCC(=O)c1ccc(Cl)cc1Cl)c1ccc2c(c1)C(=O)N(c1cccc3ncccc13)C2=O,–,inactive: 5.02%
CCOC(=O)c1c(C)[nH]c(C)c1C(=O)COC(=O)[C@@H](NC(=O)c1ccco1)C(C)C,–,inactive: 7.28%
COc1ccc(CC(=O)N/N=C(\C)c2ccccn2)cc1,"inconclusive: 9.2 µM [inhibitor, partial curve, poor fit]",–
Cc1c(C(=O)N(C)C2CC(C)(C)NC(C)(C)C2)oc2c(F)cccc12,"inconclusive: 22.4 µM [inhibitor, single point]",–
Cc1ccc(S(=O)(=O)NC(Cc2ccccc2)C(=O)NN)cc1 (centres undefined),–,inactive: -6.75%
CCc1ccc(C2=NN(C(=O)OC)C(O)(C(F)(F)F)C2)cc1 (centres undefined),"inconclusive: 10.3 µM [inhibitor, partial curve, poor fit]",–
N#C/C(=C\c1ccc(OC(=O)c2ccc(Cl)s2)cc1)c1nc2ccccc2[nH]1,"inconclusive: 18.4 µM [activator, single point]",–
COc1ccccc1OCCNC(=O)c1ccc(Br)cc1,"inconclusive: 35.5 µM [inhibitor, single point]",–
C=CCNC(=S)NNC(=O)c1ccc(OCCCC)cc1,"inconclusive: 8.91 µM [inhibitor, partial curve, poor fit]",–
CN(C)C(CNC(=O)CNC(=O)Cc1cccc2ccccc12)c1ccccc1 (centres undefined),"inconclusive: 1.12 µM [inhibitor, full curve, poor fit]",–
CCS(=O)(=O)N(CC(=O)Nc1cccc2ccccc12)c1ccc(OC)cc1,–,inactive: 25%
NCC1(CC(=O)O)CCCCC1,"inconclusive: 3.55 µM [inhibitor, full curve, poor fit]",–
Cc1ccc(Cn2c(SCCN3CCCCC3)nc3c2c(=O)n(C)c(=O)n3C)cc1,"inconclusive: 17.8 µM [inhibitor, partial curve, poor fit]",–
Cc1c(C(=O)COC(C)(C)C)[nH]c2ccccc12,–,inactive: 0%
Clc1cccc(CSc2nnc(-c3cccnc3)n2Cc2ccco2)c1,–,inactive: -18%
CCN(CC)CCNc1nc2c(c(=O)n(C)c(=O)n2C)n1C/C=C(/C)Cl,"inconclusive: 1.41 µM [inhibitor, partial curve, poor fit]",–
